The supplement of paper PMC4683952
Counter-ions that a name gives are not always drawn. The campaign covered roughly 1,200 compounds. About 50 (4%) showed activity. Rule as the data show it: all actives reach 1.3 or more but so do some inactives. Some of the results follow.

Test system: Lgr5 (MarsCy1-Lgr5-EGFP, U2OS)
Experiment: cell-surface Lgr5 expression (SCi1 fluorescence, background-subtracted) relative to WT DMSO (fold of DMSO control); higher = more Lgr5 at the plasma membrane, active = hit call of the paper
Details: U2OS MarsCy1-Lgr5-EGFP stable; treatment time: overnight; 16 µM; library: Johns Hopkins Clinical Compound Library

| Structure (SMILES) | cell-surface Lgr5 expression |
| --- | --- |
| CC1=C(/C=C/C(C)=C/C=C/C(C)=C/C(=O)O)C(C)(C)CCC1 [Tretinoin (Retinoic acid, all trans)] | inactive: 1.17 |
| CC1=C(/C=C/C(C)=C/C=C/C(C)=C/C(=O)O)C(C)(C)CCC1 [Retinoic acid] | inactive: 1.14 |
| NC(=O)c1cc[n+](CC2=C(C(=O)[O-])N3C(=O)[C@@H](NC(=O)[C@@H](c4ccccc4)S(=O)(=O)O)[C@H]3SC2)cc1 [Cefsulodin] | inactive: 1.04 |
| O.O.O=P([O-])([O-])O.[Na+].[Na+] [Sodium phosphate dibasic] | inactive: 1.05 |
| CCc1c(C)[nH]c2c1C(=O)C(CN1CCOCC1)CC2 (stereo unspecified) [Molindone hydrochloride] | inactive: 0.928 |
| CC1=C(C(=O)O)N2C(=O)[C@@H](NC(=O)[C@H](N)C3=CCC=CC3)[C@H]2SC1 [Cephradine] | inactive: 1.09 |
| CCC1(c2ccccc2)NC(=O)N(C)C1=O (stereo unspecified) [Mephenytoin] | inactive: 0.694 |
| CC1(C)[C@H](C(=O)O)N2C(=O)C[C@H]2S1(=O)=O [Sulbactam] | inactive: 1.08 |
| Cc1ncc(CO)c(CO)c1O [Pyridoxine hydrochloride] | inactive: 0.876 |
| CO/N=C(\C(=O)N[C@@H]1C(=O)N2C(C(=O)O)=C(CSc3nc(=O)c(O)nn3C)CS[C@H]12)c1csc(N)n1 [Ceftriaxone] | inactive: 0.933 |
| C[C@]12CCC(=O)C=C1CC[C@@H]1[C@@H]2[C@@H](O)C[C@@]2(C)[C@H]1CC[C@]2(O)C(=O)COC(=O)CCC(=O)O [Hydrocortisone hemisuccinate monohydrate] | active: 1.36 |
| CCOC(=O)[C@H](CCc1ccccc1)N[C@H]1CCc2ccccc2N(CC(=O)O)C1=O [Benazepril hydrochloride] | inactive: 0.872 |
| COC1=C(OC)C(=O)C(CCCCCCCCCCO)=C(C)C1=O [Idebenone] | inactive: 1.04 |
| O=C1CCC(c2ccc(-n3ccnc3)cc2)=NN1 [Imazodan] | inactive: 1.18 |
| CCNC(=O)N1CCN(CCCC(c2ccc(F)cc2)c2ccc(F)cc2)CC1 [Amperozide] | inactive: 1.4 |
| OB(O)O [Boric acid] | inactive: 1.05 |
| COc1ccc(CN(CCN(C)C)c2ccccn2)cc1 [Pyrilamine maleate (Mepyramine maleate)] | inactive: 1.19 |
| COc1ccc(CN(CCN(C)C)c2ccccn2)cc1 [Pyrilamine] | inactive: 0.94 |
| CC(=O)c1ccc(S(=O)(=O)NC(=O)NC2CCCCC2)cc1 [Acetohexamide] | inactive: 0.898 |
| CCCCC[C@H](O)/C=C/[C@@H]1[C@@H](C/C=C\CCCC(=O)O)[C@@H](O)C[C@H]1O [Dinoprost tromethamine (Prostaglandin F2alpha tris salt)] | inactive: 0.964 |
| OC[C@H]1O[C@H]([S-])[C@H](O)[C@@H](O)[C@@H]1O.[Au+] [Aurothioglucose] | inactive: 1.03 |
| Cc1cc(=O)oc2cc(O)ccc12 [Hymecromone (4-Methylumbelliferone Free Acid)] | inactive: 1.06 |
| [Br-].[Na+] [Sodium bromide] | inactive: 0.934 |

| Structure (SMILES) | cell-surface Lgr5 expression |
| --- | --- |
| O=S(=O)(O)c1ccc2c(/N=N/c3ccc(S(=O)(=O)O)c4ccccc34)c(O)c(S(=O)(=O)O)cc2c1 [Amaranth] | inactive: 1.02 |
| [K+].[O]=[Mn](=[O])(=[O])[O-] [Potassium permanganate] | inactive: 1.31 |
| c1ccc(C2CN3CCSC3=N2)cc1 (stereo unspecified) [Tetramisole] | inactive: 1.2 |
| Cc1scc2c1N(C(=O)CN1CCN(C)CC1)c1ccccc1NC2=O [Telenzepine] | active: 1.3 |
| Cc1ccc2c(Br)cc(Br)c(O)c2n1 [Broquinaldol (5,7-dibromo-8-hydroxy-quinaldine)] | inactive: 1.1 |
| CC(=O)OCC(COC(C)=O)OC(C)=O [Triacetin] | inactive: 0.869 |
| NCCC[C@H](N)C(=O)O [L-Ornithine] | inactive: 0.718 |
| CC[C@H]1OC(=O)[C@H](C)[C@@H](O[C@H]2C[C@@](C)(OC)[C@@H](O)[C@H](C)O2)[C@H](C)[C@@H](O[C@@H]2O[C@H](C)C[C@H](N(C)C)[C@H]2O)[C@](C)(O)C[C@@H](C)/C(=N\OCOCCOC)[C@H](C)[C@@H](O)[C@]1(C)O [Roxithromycin] | inactive: 0.978 |
| CC(=O)N[C@@H](CC(C)C)C(=O)O [N-Acetyl-L-leucine] | inactive: 1.16 |
| [I-].[Na+] [Sodium iodide] | inactive: 1.13 |
| COc1cc(S(=O)(=O)O)ccc1O [Potassium guaiacolsulfonate] | inactive: 1.11 |
| COc1cc(S(=O)(=O)O)ccc1O [Guaiacolsulfonic acid potassium salt] | inactive: 1.19 |
| O=C1CN2Cc3c(ccc(Cl)c3Cl)N=C2N1 [Anagrelide hydrochloride] | inactive: 0.898 |
| CC(C)NCC(O)COc1ccc(COCCOC(C)C)cc1 (stereo unspecified) [Bisoprolol fumarate] | inactive: 1.09 |
| CCN(Cc1ccncc1)C(=O)C(CO)c1ccccc1 (stereo unspecified) [Tropicamide] | inactive: 0.289 |
| CCN(CC)CC#CCOC(=O)C(O)(c1ccccc1)C1CCCCC1 (stereo unspecified) [Oxybutynin chloride] | inactive: 0.687 |
| OC(CCN1CCCCC1)(c1ccccc1)C1CC2C=CC1C2 (stereo unspecified) [Biperiden hydrochloride] | inactive: 0.801 |
| COc1ccc(C(=O)NCc2cccnc2)cc1C(=O)NCc1cccnc1 [Picotamide] | inactive: 1.03 |
| COc1cc2nc(N3CCN(C(=O)c4ccco4)CC3)nc(N)c2cc1OC [Prazosin] | inactive: 0.986 |
| CCn1cc(C(=O)O)c(=O)c2cnc(N3CCNCC3)nc21 [Pipemidic acid] | inactive: 1.15 |
| [O]=[Mg] [Magnesium oxide] | inactive: 0.953 |
| N=C(N)N1Cc2ccccc2C(O)C1 (stereo unspecified) [4-Hydroxydebrisoquin] | inactive: 1.07 |
| CCC(C)C(C(=O)OCC[N+](C)(CC)CC)c1ccccc1 (stereo unspecified) [Valethamate bromide] | inactive: 1.1 |

Single entries from the results shown:
Value of O=S(=O)(O)c1ccc2c(/N=N/c3ccc(S(=O)(=O)O)c4ccccc34)c(O)c(S(=O)(=O)O)cc2c1 [Amaranth] under cell-surface Lgr5 expression: inactive: 1.02
Value of CC[C@H]1OC(=O)[C@H](C)[C@@H](O[C@H]2C[C@@](C)(OC)[C@@H](O)[C@H](C)O2)[C@H](C)[C@@H](O[C@@H]2O[C@H](C)C[C@H](N(C)C)[C@H]2O)[C@](C)(O)C[C@@H](C)/C(=N\OCOCCOC)[C@H](C)[C@@H](O)[C@]1(C)O [Roxithromycin] under cell-surface Lgr5 expression: inactive: 0.978
Value of CCn1cc(C(=O)O)c(=O)c2cnc(N3CCNCC3)nc21 [Pipemidic acid] under cell-surface Lgr5 expression: inactive: 1.15
Value of CCC(C)C(C(=O)OCC[N+](C)(CC)CC)c1ccccc1 (stereo unspecified) [Valethamate bromide] under cell-surface Lgr5 expression: inactive: 1.1
